From patent publication US20130316376A1 come the findings set out here.

Protein sequences, listed by entry. Tags and fused reporters are not part of them. Residues count along the entry.
UniProt P02768, residues 25-609: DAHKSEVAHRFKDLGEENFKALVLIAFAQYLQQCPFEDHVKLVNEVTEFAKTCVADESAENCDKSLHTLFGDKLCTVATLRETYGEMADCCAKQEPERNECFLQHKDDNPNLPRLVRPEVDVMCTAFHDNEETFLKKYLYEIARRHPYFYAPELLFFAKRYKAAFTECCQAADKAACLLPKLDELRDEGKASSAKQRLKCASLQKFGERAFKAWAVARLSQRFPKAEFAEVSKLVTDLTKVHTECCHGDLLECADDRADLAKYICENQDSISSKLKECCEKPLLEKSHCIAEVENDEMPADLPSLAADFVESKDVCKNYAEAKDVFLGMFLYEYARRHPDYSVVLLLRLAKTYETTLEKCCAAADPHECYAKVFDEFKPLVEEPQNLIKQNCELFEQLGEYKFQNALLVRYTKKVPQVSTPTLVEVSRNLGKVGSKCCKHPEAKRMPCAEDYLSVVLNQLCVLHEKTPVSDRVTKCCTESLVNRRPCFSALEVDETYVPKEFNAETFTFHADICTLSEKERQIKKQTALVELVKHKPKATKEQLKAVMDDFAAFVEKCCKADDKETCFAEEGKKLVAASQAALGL

These are yes or no findings as the source states them, for the method shown.

The target in assay [1] is albumin from human blood plasma (human) (UniProt P02768). The experiment in a line: films, low pH elution, non-reducing SDS-PAGE.
For assay [2] the target is unchanged. The experiment in a line: fiber, low pH elution, non-reducing SDS-PAGE.
The target is the same in assay [3]. The experiment in a line: films used once before and stored 29 days in PBS, low pH elution, non-reducing SDS-PAGE.

B1: Rep4CT (SEQ ID NO: 20) (protein)
chain: GPNSGQGGYGGLGQGGYGQGAGSSAAAAAAAAAAAAGGQGGQGQGGYGQGSGGSAAAAAAAAAAAAAAAGRGQGGYGQGSGGNAAAAAAAAAAAAAAAGQGGQGGYGRQSQGAGSAAAAAAAAAAAAAAGSGQGGYGGQGQGGYGQSSASASAAASAASTVANSVSRLSSPSAVSRVSSAVSSLVSNGQVNMAALPNIISNISSSVSASAPGASGCEVIVQALLEVITALVQIVSSSSVGYINPSAVNQITNVVANAMAQVMG
Regarding B1, the binding result in assay [1], in assay [2] and in assay [3] was “no binding (tested: human blood plasma (1:5 dilution))” each time.
